Experimental data: patent US20210196666
Where cells or extracts were used, other partners may take part.

By UniProt entry, the sequences of proteins in these tests, tags left out. Where a name states a change or a piece, a line headed by the entry shows the natural chain unless it says otherwise.
UniProt Q08050: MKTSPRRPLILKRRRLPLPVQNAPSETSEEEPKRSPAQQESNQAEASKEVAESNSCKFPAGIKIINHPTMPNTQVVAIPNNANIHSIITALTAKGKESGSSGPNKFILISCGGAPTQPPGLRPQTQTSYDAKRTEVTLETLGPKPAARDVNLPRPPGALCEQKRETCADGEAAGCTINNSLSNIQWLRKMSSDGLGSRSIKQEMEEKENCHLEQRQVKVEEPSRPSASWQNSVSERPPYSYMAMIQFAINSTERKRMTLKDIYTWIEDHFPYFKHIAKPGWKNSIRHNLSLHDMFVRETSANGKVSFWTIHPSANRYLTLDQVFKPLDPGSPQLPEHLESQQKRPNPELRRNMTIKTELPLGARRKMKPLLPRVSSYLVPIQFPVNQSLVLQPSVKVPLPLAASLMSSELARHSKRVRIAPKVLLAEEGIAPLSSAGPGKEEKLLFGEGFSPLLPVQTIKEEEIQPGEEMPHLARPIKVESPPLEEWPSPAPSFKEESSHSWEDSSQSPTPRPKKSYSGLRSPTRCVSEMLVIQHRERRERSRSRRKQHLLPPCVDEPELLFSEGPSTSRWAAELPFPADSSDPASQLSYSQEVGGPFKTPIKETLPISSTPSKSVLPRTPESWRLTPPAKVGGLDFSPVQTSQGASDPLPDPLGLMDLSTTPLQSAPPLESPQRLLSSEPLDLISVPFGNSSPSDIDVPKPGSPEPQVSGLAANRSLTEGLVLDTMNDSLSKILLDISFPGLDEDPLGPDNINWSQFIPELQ

Target: FoxM1 (UniProt Q08050)
Assay: EMSA
Details: extract from SLPI-treated MDA-MB-231 cells; supershifted by FoxM1 antibody; blocked by unlabeled FoxM1 oligo competitor; binding weaker in untreated extract; protein in an extract; protein details: endogenous, MDA-MB-231 cell protein extract; label: biotin end-label

CTGTTCAAGATGGAGTCGCTCTGGTTC (double strand) [MMP2 promoter FoxM1-site probe]
binding result: binds
